Compound in this experiment: Nc1nc2c(ncn2[C@@H]2O[C@H](COP(=O)(O)OP(=O)(O)OP(=O)(O)O)[C@@H](O)[C@H]2O)c(=O)[nH]1 [guanosine triphosphate]
In words: NP40-soluble protein abundance relative to vehicle (solubility fold change) (ratio); higher = more soluble protein in presence of GTP. The protocol: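 Solubility proteome profiling in Jurkat crude lysate. Lysate was treated with Mg-GTP (0.1-10 mM) for 10 min at room temperature and 3 min at 37 °C, then solubilised with 0.8% NP40 and benzonase, followed by ultracentrifugation. Proteins were quantified by TMT10 LC-MS/MS; the value is the NP40-soluble abundance relative to the NP40-processed vehicle, from 3 independent experiments.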

The chains behind the UniProt entries cited, without tags or fusion partners. Where a name states a change or a piece, a line headed by the entry shows the natural chain unless it says otherwise.
UniProt P60602: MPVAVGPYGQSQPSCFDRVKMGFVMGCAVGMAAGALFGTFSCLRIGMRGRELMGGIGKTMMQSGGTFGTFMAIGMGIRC
UniProt P84090, whole entry, looked up: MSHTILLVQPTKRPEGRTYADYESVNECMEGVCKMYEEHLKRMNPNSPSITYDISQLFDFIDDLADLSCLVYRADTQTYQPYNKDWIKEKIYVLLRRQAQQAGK
UniProt P51452: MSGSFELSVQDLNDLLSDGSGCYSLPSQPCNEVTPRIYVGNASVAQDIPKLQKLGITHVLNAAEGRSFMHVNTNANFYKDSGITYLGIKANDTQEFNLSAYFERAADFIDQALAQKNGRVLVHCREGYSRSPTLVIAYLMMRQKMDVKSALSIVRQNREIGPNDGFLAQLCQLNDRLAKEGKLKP
UniProt P55795: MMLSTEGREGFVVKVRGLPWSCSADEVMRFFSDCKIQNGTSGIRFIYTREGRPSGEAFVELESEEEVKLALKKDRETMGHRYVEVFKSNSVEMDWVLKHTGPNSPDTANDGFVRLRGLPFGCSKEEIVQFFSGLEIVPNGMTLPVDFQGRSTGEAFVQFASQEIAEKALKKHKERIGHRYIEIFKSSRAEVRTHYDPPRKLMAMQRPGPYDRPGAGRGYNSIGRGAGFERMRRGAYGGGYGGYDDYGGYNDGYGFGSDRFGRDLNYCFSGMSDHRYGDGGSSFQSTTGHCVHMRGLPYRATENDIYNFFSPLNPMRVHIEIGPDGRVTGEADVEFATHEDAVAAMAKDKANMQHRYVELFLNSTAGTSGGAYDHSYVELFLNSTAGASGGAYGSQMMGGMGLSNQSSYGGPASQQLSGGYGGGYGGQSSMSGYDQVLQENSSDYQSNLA
UniProt P61225: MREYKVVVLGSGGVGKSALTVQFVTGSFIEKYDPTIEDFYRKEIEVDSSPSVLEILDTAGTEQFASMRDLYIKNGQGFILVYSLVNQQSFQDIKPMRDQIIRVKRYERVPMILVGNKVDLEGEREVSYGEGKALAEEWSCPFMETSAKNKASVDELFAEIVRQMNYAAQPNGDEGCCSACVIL

± gives the standard deviation of the averaged measurements. The list shows a part of the results.

Take ROMO1 (UniProt P60602): the NP40-soluble protein abundance is, setting by setting: (concentration: 0.1mM) 0.979 ± 0.035; (concentration: 0.5mM) 0.931 ± 0.071; (concentration: 1mM) 0.897 ± 0.05; (concentration: 2mM) 0.937 ± 0.085; (concentration: 4mM) 0.882 ± 0.05; (concentration: 6mM) 0.855 ± 0.041. In addition, the NP40-soluble protein abundance was 0.83 ± 0.096 (concentration: 8mM) and 0.866 ± 0.045 (concentration: 10mM).

As for UniProt P84090, the NP40-soluble protein abundance by setting is: (concentration: 0.1mM) 1.06 ± 0.1; (concentration: 0.5mM) 1.02 ± 0.06; (concentration: 1mM) 1.26 ± 0.18; (concentration: 2mM) 1.34 ± 0.11; (concentration: 4mM) 1.42 ± 0.16; (concentration: 6mM) 1.54 ± 0.1. In addition, the NP40-soluble protein abundance (concentration: 8mM) was found to be 1.65 ± 0.14 and the NP40-soluble protein abundance (concentration: 10mM) was 1.95 ± 0.38.

In the case of UniProt P51452 and related entries, the NP40-soluble protein abundance is, setting by setting: (concentration: 0.1mM) 0.901 ± 0.11; (concentration: 0.5mM) 0.848 ± 0.085; (concentration: 1mM) 0.898 ± 0.12; (concentration: 2mM) 0.874 ± 0.094; (concentration: 4mM) 0.897 ± 0.12; (concentration: 6mM) 0.853 ± 0.11. In addition, the NP40-soluble protein abundance (concentration: 8mM) was determined as 0.821 ± 0.17 and the NP40-soluble protein abundance (concentration: 10mM) worked out at 0.851 ± 0.12.

HNRNPH2 (UniProt P55795): the NP40-soluble protein abundance (concentration: 0.1mM) amounted to 1.01 ± 0.026; the NP40-soluble protein abundance (concentration: 0.5mM) worked out at 1.02 ± 0.032; the NP40-soluble protein abundance (concentration: 1mM) was found to be 0.937 ± 0.028; the NP40-soluble protein abundance (concentration: 2mM) was 0.966 ± 0.017; the NP40-soluble protein abundance (concentration: 4mM) worked out at 0.938 ± 0.024; the NP40-soluble protein abundance (concentration: 6mM) was 0.957 ± 0.02. Moreover, the NP40-soluble protein abundance turned out to be 0.954 ± 0.018 (concentration: 8mM) and 0.926 ± 0.048 (concentration: 10mM).

UniProt P61225: the NP40-soluble protein abundance runs as follows: (concentration: 0.1mM) 0.926 ± 0.046; (concentration: 0.5mM) 1 ± 0.04; (concentration: 1mM) 0.969 ± 0.065; (concentration: 2mM) 0.933 ± 0.038; (concentration: 4mM) 0.895 ± 0.061; (concentration: 6mM) 0.88 ± 0.047. Moreover, the NP40-soluble protein abundance reads like this: (concentration: 8mM) 0.914 ± 0.072; (concentration: 10mM) 0.902 ± 0.033.

The values above are taken from the supplement of paper PMC6411743.
